# Some entries share one result that the patent states for a list of compounds.
# Columns and labels:
# human calcium receptor = biological target: T1, human calcium receptor (Homo sapiens, UniProt P41180); assay: Calcium Receptor Inhibitor Assay (block of intracellular Ca2+ increase elicited by extracellular Ca2+, fluo-3); type: cell-based; settings: HEK 293 4.0-7 cells stably expressing the human calcium receptor; 10 uM was the limit of the assay; read-out: IC50 for blocking increases of intracellular Ca2+ elicited by extracellular Ca2+
# T1 construct: expressed in transfected cells; host or cells: HEK 293 4.0-7
# T1 sequence (P41180 20-1078): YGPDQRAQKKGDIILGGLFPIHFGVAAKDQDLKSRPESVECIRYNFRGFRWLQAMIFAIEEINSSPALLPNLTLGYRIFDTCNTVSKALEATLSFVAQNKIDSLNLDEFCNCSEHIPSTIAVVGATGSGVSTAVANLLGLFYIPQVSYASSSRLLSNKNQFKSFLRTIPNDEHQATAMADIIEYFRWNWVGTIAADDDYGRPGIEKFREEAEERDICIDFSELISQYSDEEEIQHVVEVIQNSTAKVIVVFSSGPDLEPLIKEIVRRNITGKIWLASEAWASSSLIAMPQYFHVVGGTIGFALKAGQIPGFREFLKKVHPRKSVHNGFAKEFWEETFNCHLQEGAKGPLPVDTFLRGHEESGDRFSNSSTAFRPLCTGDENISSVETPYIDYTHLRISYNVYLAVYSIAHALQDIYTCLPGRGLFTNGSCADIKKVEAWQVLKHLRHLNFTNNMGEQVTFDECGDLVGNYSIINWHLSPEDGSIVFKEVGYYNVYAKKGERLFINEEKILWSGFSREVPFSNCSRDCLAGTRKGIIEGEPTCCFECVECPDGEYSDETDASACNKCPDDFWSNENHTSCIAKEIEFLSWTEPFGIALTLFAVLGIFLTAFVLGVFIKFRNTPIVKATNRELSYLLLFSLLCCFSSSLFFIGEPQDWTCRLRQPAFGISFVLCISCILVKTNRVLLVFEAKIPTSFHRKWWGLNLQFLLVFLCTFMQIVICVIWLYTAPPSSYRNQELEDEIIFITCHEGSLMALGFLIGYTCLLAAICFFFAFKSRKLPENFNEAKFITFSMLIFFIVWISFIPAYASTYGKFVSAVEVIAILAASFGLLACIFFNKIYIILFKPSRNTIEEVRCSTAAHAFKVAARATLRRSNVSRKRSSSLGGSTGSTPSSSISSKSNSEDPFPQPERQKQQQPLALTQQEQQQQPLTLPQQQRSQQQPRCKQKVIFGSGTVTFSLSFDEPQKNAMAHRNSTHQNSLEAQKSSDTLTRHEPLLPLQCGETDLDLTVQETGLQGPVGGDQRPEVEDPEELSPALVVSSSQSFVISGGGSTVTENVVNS
# Protocol: Calcilytic activity was measured by determining the IC50 of the test compound for blocking increases of intracellular Ca^2+ elicited by extracellular Ca^2+ in HEK 293 4.0-7 cells stably expressing the human calcium receptor. HEK 293 4.0-7 cells were constructed as described by Rogers et al., J. Bone Miner. Res. 10 Suppl. 1:S483, 1995 (hereby incorporated by reference to the extent required to conduct the present assay). Intracellular Ca^2+ increases were elicited by increasing extracellular Ca^2+ from 1 to 1.75 mM. Intracellular Ca^2+ was measured using fluo-3, a fluorescent calcium indicator. […]
# Sulfate- and phosphate-free parathyroid cell buffer (SPF-PCB) contained 20 mM Na-Hepes, pH 7.4, 126 mM NaCl, 5 mM KCl, and 1 mM MgCl2. […] The BSA-free fraction was used for diluting the cells in the cuvette for measurements of fluorescence. […]
# For recording fluorescent signals, 300 uL of cell suspension were diluted in 1.2 mL of SPF buffer containing 1 mM CaCl2 and 1 mg/mL of D-glucose. Measurements of fluorescence were performed at 37° C. with constant stirring using a spectrofluorimeter. Excitation and emission wavelengths were measured at 485 and 535 nm, respectively. To calibrate fluorescence signals, digitonin (5 mg/mL in ethanol) was added to obtain Fmax, and the apparent Fmin was determined by adding Tris-EGTA (2.5 M Tris-Base, 0.3 M EGTA). […]
# [1] = biological target: T2, Human Parathyroid Calcium Receptor (“HuPCaR”) (Homo sapiens, UniProt P41180); assay: Calcium Receptor Binding Assay (3H ligand displacement, HEK 293 4.0-7 membranes); settings: 2 nM 3H compound, 4° C. 30 min, 10 uM was the limit of the assay
# T2 construct: expressed in transfected cells; host or cells: HEK 293 4.0-7 (plasma membrane preparation)
# T2 sequence (P41180 20-1078): T1 sequence (P41180 20-1078)
# Protocol: HEK 293 4.0-7 cells stably transfected with the Human Parathyroid Calcium Receptor (“HuPCaR”) were scaled up in T180 tissue culture flasks. Plasma membrane was obtained by polytron homogenization or glass douncing in buffer (50 mM Tris-HCl pH 7.4, 1 mM EDTA, 3 mM MgCl2) in the presence of a protease inhibitor cocktail containing 1 uM Leupeptin, 0.04 uM Pepstatin, and 1 mM PMSF. Aliquoted membrane was snap frozen and stored at −80° C. ^3H labeled compound was radiolabeled to a radiospecific activity of 44 Ci/mmole and was aliquoted and stored in liquid nitrogen for radiochemical stability.
# A typical reaction mixture contained 2 nM ^3H compound ((R,R)—N-4′-Methoxy-t-3-3′-methyl-1′-ethylphenyl-1-(1-naphthyl)ethylamine), or ^3H compound (R)—N-[2-Hydroxy-3-(3-chloro-2-cyanophenoxy)propyl]-1,1-dimethyl-2-(4-methoxyphenyl)ethylamine with 4-10 ug membrane in homogenization buffer containing 0.1% gelatin and 10% EtOH in a reaction volume of 0.5 mL. Incubation was performed in 12×75 polyethylene tubes in an ice water bath. […] Nonspecific binding was determined by the addition of 100-fold excess of unlabeled homologous ligand, and was generally 20% of total binding. […] Filters were placed in scintillation fluid and radioactivity assessed by liquid scintillation counting.
substance,measurement,setting,value
"3-(3,4-difluoro-5-{(1S)-1-hydroxy-2-[(1-methyl-1-phenylethyl)amino]ethyl}phenyl)propanoic acid [Example 14]",IC50,human calcium receptor,> 10 µM
same,IC50,[1],> 10 µM

# From patent publication US7902394B2, “Calcilytic compounds” (GlaxoSmithKline LLC, priority 2006, dated 2011)
